This assay concerns add-G6 riboswitch. The assay is described as follows: cells. It is filed as cell-based. Particulars: Homo sapiens, HEK293, read-out: Fold Induction of luciferase activity. From the text:
A truncated human beta-globin intron sequence was synthesized and inserted in the coding sequence of a firefly luciferase gene. A mutant human DHFR exon 2 was synthesized and inserted in the middle of this truncated beta-globin intron sequence using Golden gate cloning strategy. Aptamers including xpt-G/A^1, ydhl-G/A^2, yxj^3, add^4, gdg6-G/A^5 (citations for the aptamers are incorporated herein by reference) were synthesized as oligonucleotides (“oligos”) with 4 nucleotide overhang at the 5′ end that are complementary to two different BsaI sites individually (IDT), annealed and ligated to BsaI-digested mDHFR-Luci-acceptor vector.
3.5×10^4 HEK 293 cells were plated in a 96-well flat bottom plate the day before transfection. Plasmid DNA (500 ng) was added to a tube or a 96-well U-bottom plate. […] Then, 50 μL of this diluted transfection reagent was added to the DNA, mixed, and incubated at RT for 20 min. Finally, 7 μL of this solution was added to a well of cells in the 96-well plate.
24 hours after media change, plates were removed from the incubator, and equilibrated to RT for several minutes on a lab bench, then aspirated. Glo-lysis buffer (Promega, 100 μL, RT) was added, and the plates maintained at RT for at least 5 minutes. […] Following a 5 min incubation at RT, luminescence was measured using a Tecan machine with 500 mSec read time. […]

Here are results for one compound from US11371077B2, “High throughput cell-based screening for aptamers” (MeiraGTx UK II Limited, priority 2016, dated 2022).

For `Cc1cc(/C=C/c2ccc3cc(N(C)C)ccc3[n+]2C)c(C)n1-c1ccccc1` [Pyrvinium pamoate], the fold induction at 100 µM is 15.8.
